This note sets out measurements from patent publication US10577394 (dated 2020).

[ ]: non-standard residue; d: D form. dPhe(4-Cl) = N[C@H](Cc1ccc(Cl)cc1)C(=O)O; d2Nal = N[C@H](Cc1ccc2ccccc2c1)C(=O)O; d3Pal = N[C@H](Cc1cccnc1)C(=O)O

Data set [1] is described as follows: general procedure: Fmoc solid-phase peptide synthesis; Rink Amide resin, Rink Amide AM resin or Rink Amide MBHA resin; DIC/HOBt. The note with it: whole synthesis, scale of the general procedure 10 g or 100 g of Rink Amide resin, 0.5 mmol/g, acetate.
A short description of data set [2]: general procedure: Fmoc solid-phase peptide synthesis; Rink Amide resin; DIC/HOBt. The note with it: whole synthesis, scale of the general procedure 10 g or 100 g of Rink Amide resin, 0.5 mmol/g, acetate, run 1.

In the case of “Ac-[d2Nal][dPhe(4-Cl)][d3Pal]SY[dK]LKP[dA]-NH2”, the “crude HPLC purity” value in data set [1] (HPLC) worked out at 90.67%. Also, the “crude purity (method not given)” value is given as 91% in data set [1] (HPLC, run 2) and 90% in data set [2] (HPLC). Moreover, the crude yield in data set [1] (run 2) amounted to 99.8%; in data set [2], 98%.
